PubChem BioAssay AID1259254, NCATS | 2017

Screen: 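Genome-wide screen for genes that prevent DNA re-replication in cancer cells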 (primary screen)
System: human HCT116 colorectal cancer cells
Reagent: single siRNA against human genes
Duration: 3 days
Detection: 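Nuclei stained with Hoechst and imaged; cell-cycle phase assigned by DNA content; G2 share scaled per plate, non-targeting siRNA 0%, GMNN siRNA 100%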
Direction: G2 robust z-score and G2 cells, % of GMNN control: higher = more G2 cells, more excess DNA replication
Hit rule: 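An siRNA counts as active if its G2 robust z-score lies at least 5 MADs above the screen median; here such calls match roughly 38% of GMNN control or more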
Here is one part, drawn at random, of about 59,000 reagents. About 1,550 of all reagents (2.6%) were called active. 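G2 share is only a proxy for re-replication; each gene was hit by three separate siRNAs, and active genes were retested.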 Unmarked entries are inactive. The numbers tell different reagents against one gene apart. Not all columns of the deposit are shown. Not given: the amount of reagent.

{"target": "PICALM", "siRNA no.": 1, "G2 robust z-score": -0.0301, "G2 cells, % of GMNN control": 2.76}
{"target": "PICALM", "siRNA no.": 2, "G2 robust z-score": 0.66, "G2 cells, % of GMNN control": 7.61}
{"target": "PICALM", "siRNA no.": 3, "G2 robust z-score": 0.945, "G2 cells, % of GMNN control": 9.62}
{"target": "FAM107B", "siRNA no.": 1, "G2 robust z-score": 2.21, "G2 cells, % of GMNN control": 18.5}
{"target": "FAM107B", "siRNA no.": 2, "G2 robust z-score": 4.93, "G2 cells, % of GMNN control": 37.6}
{"target": "FAM107B", "siRNA no.": 3, "G2 robust z-score": -0.404, "G2 cells, % of GMNN control": 0.126}
{"target": "VPS13D", "siRNA no.": 1, "G2 robust z-score": 0.733, "G2 cells, % of GMNN control": 8.12}
{"target": "VPS13D", "siRNA no.": 2, "G2 robust z-score": -0.137, "G2 cells, % of GMNN control": 2}
{"target": "VPS13D", "siRNA no.": 3, "G2 robust z-score": -0.307, "G2 cells, % of GMNN control": 0.805}
{"target": "GTF3C6", "siRNA no.": 1, "G2 robust z-score": -0.77, "G2 cells, % of GMNN control": -2.45}
{"target": "GTF3C6", "siRNA no.": 2, "G2 robust z-score": -0.639, "G2 cells, % of GMNN control": -1.53}
{"target": "GTF3C6", "siRNA no.": 3, "G2 robust z-score": 0.139, "G2 cells, % of GMNN control": 3.94}

Continued, starting with the last 2 of the part before.
{"target": "GTF3C6", "siRNA no.": 2, "G2 robust z-score": -0.639, "G2 cells, % of GMNN control": -1.53}
{"target": "GTF3C6", "siRNA no.": 3, "G2 robust z-score": 0.139, "G2 cells, % of GMNN control": 3.94}
{"target": "GATA6", "siRNA no.": 1, "G2 robust z-score": 1.22, "G2 cells, % of GMNN control": 11.6}
{"target": "GATA6", "siRNA no.": 2, "G2 robust z-score": 1.74, "G2 cells, % of GMNN control": 15.2}
{"target": "GATA6", "siRNA no.": 3, "G2 robust z-score": 0.0617, "G2 cells, % of GMNN control": 3.4}
{"target": "OR10Q1", "siRNA no.": 1, "G2 robust z-score": 2.32, "G2 cells, % of GMNN control": 19.3}
{"target": "OR10Q1", "siRNA no.": 2, "G2 robust z-score": -0.602, "G2 cells, % of GMNN control": -1.27}
{"target": "OR10Q1", "siRNA no.": 3, "G2 robust z-score": -0.0438, "G2 cells, % of GMNN control": 2.66}
{"target": "ZNF207", "siRNA no.": 1, "G2 robust z-score": -0.286, "G2 cells, % of GMNN control": 0.955}
{"target": "ZNF207", "siRNA no.": 2, "G2 robust z-score": -0.00275, "G2 cells, % of GMNN control": 2.95}
{"target": "ZNF207", "siRNA no.": 3, "G2 robust z-score": 1.14, "G2 cells, % of GMNN control": 11}
{"target": "OXCT1", "siRNA no.": 1, "G2 robust z-score": 0.116, "G2 cells, % of GMNN control": 3.78}
{"target": "OXCT1", "siRNA no.": 2, "G2 robust z-score": -0.98, "G2 cells, % of GMNN control": -3.93}
{"target": "OXCT1", "siRNA no.": 3, "G2 robust z-score": -0.738, "G2 cells, % of GMNN control": -2.23}
{"target": "CIB3", "siRNA no.": 1, "G2 robust z-score": -1.32, "G2 cells, % of GMNN control": -6.31}
{"target": "CIB3", "siRNA no.": 2, "G2 robust z-score": -0.0432, "G2 cells, % of GMNN control": 2.66}
{"target": "CIB3", "siRNA no.": 3, "G2 robust z-score": 1.06, "G2 cells, % of GMNN control": 10.4}
{"target": "RPL23AP2", "siRNA no.": 1, "G2 robust z-score": 0.783, "G2 cells, % of GMNN control": 8.47}
{"target": "RPL23AP2", "siRNA no.": 2, "G2 robust z-score": 0.825, "G2 cells, % of GMNN control": 8.77}
{"target": "RPL23AP2", "siRNA no.": 3, "G2 robust z-score": 0.18, "G2 cells, % of GMNN control": 4.24}
